This series in a line: general procedure: Fmoc solid-phase peptide synthesis; Fmoc-Rink amide MBHA resin (NovaBiochem); HBTU/HOBt/DIEA. As to conditions: whole synthesis; for final HPLC purity: analytical HPLC; for final HPLC purity / isolated yield: scale of the general procedure 0.250 mmol.

With “Fluorescein-thiourea-AEA3-Gly-OPh-CO-FlYEE-NH2”, the isolated mass came out at 6.4 mg, the “final HPLC purity” value is reported as >95% and the isolated yield amounted to 13%.

For the substance Biotin-Gly-OPh-CO-FlYEE-NH2, the isolated mass stood at 29.4 mg, the “final HPLC purity” value is >95% and the isolated yield is 21%.

Consider “argatroban-AEA3-βAla-Gly-OPh-CO-FlYEE-NH2.2 TFA”, for which the crude mass stood at 29.7 mg, the isolated mass was 6.7 mg, the “final HPLC purity” value was >80% and the isolated yield amounted to 10%.

(Values after patent publication US7166695B2 (ConjuChem Biotechnologies Inc., priority 1997, dated 2007).)
